Results are given in words; binding and its absence hold for the method and conditions named. For some assays here: Binding seen in cells or lysates may run through a third protein. Some binding calls cover weakened binding; strength is not graded here. For some assays here: Where a sequence is shown, tags or fusion partners need not be part of it.
Assays:
[1] = target: T1, GBD-Scd6 (S. cerevisiae) (UniProt P45978); test: two-hybrid; directed test: PJ69-4A co-transformed with pGBD-c1-Scd6 and pGAD-c1-Hmt1; spotted on SC-Leu-Trp, SC-Leu-Trp-His and SC-Leu-Trp-His with 1 mM 3-AT, 3 days at 30°C
T1 sequence: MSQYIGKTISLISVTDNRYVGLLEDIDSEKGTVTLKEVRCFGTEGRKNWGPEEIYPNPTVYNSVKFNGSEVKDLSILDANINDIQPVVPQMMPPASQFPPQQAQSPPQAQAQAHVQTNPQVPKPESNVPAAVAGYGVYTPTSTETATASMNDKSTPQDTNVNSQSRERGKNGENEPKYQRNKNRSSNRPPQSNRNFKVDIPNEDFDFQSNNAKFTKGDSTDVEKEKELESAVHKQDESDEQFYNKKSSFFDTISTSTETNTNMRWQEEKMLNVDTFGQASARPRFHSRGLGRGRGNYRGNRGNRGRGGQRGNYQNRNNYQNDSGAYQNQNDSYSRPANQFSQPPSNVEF

[2] = target: T2, Scd6Flag (S. cerevisiae) (UniProt P45978); test: co-IP; Scd6Flag immunoprecipitated with anti-Flag antibody on protein G-Sepharose from extracts of the Hmt1myc strain in XT buffer (50 mM HEPES-KOH pH 7.3, 20 mM potassium acetate, 2 mM EDTA, 0.1% Triton X-100, 5% glycerol), 30 min at 4°C; extracts with or without 200 μg/mL RNase A; blot with anti-myc
T2 sequence: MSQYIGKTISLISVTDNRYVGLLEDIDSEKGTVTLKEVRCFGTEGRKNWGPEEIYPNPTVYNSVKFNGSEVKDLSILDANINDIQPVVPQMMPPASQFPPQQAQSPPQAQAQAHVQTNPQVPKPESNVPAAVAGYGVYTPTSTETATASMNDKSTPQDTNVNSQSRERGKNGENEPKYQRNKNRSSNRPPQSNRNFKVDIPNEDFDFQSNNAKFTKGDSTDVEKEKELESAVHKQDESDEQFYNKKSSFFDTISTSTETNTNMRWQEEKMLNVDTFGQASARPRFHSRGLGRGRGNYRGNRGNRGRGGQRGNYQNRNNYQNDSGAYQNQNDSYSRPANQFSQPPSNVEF

B1: GAD-Hmt1 (protein, UniProt P38074 1-348)
chain: MSKTAVKDSATEKTKLSESEQHYFNSYDHYGIHEEMLQDTVRTLSYRNAIIQNKDLFKDKIVLDVGCGTGILSMFAAKHGAKHVIGVDMSSIIEMAKELVELNGFSDKITLLRGKLEDVHLPFPKVDIIISEWMGYFLLYESMMDTVLYARDHYLVEGGLIFPDKCSIHLAGLEDSQYKDEKLNYWQDVYGFDYSPFVPLVLHEPIVDTVERNNVNTTSDKLIEFDLNTVKISDLAFKSNFKLTAKRQDMINGIVTWFDIVFPAPKGKRPVEFSTGPHAPYTHWKQTIFYFPDDLDAETGDTIEGELVCSPNEKNNRDLNIKISYKFESNGIDGNSRSRKNEGSYLMH
In the case of B1, the binding [1] is reported as “binds”.

B2: Hmt1myc (protein, UniProt P38074 1-348)
chain: MSKTAVKDSATEKTKLSESEQHYFNSYDHYGIHEEMLQDTVRTLSYRNAIIQNKDLFKDKIVLDVGCGTGILSMFAAKHGAKHVIGVDMSSIIEMAKELVELNGFSDKITLLRGKLEDVHLPFPKVDIIISEWMGYFLLYESMMDTVLYARDHYLVEGGLIFPDKCSIHLAGLEDSQYKDEKLNYWQDVYGFDYSPFVPLVLHEPIVDTVERNNVNTTSDKLIEFDLNTVKISDLAFKSNFKLTAKRQDMINGIVTWFDIVFPAPKGKRPVEFSTGPHAPYTHWKQTIFYFPDDLDAETGDTIEGELVCSPNEKNNRDLNIKISYKFESNGIDGNSRSRKNEGSYLMH
With B2 the binding [2] was “binds”.
